Patent US5538834A, “Blocked photographically useful compounds for use with peroxide-containing processes” (Eastman Kodak Company, priority 1994, dated 1996)

Experiments:
[1] = Image formation with activator solutions with and without hydrogen peroxide, no incubation (Examples 6-9)
[2] = Image dye formation activity (sensitometry) of blocked developing agents (Examples 3-5); details: activator with 0.6% hydrogen peroxide, pH 11, 77° F, 90 sec, strips incubated 1 week at 100° F, 50% relative humidity
[3] = activator +H2O2, pH 11, without incubation
[4] = activator -H2O2, pH 11, without incubation

| SMILES | Dmax - Dmin [1, 3] | Dmax - Dmin [1, 4] | Dmax - Dmin [2] |
| --- | --- | --- | --- |
| CCN(CCNS(C)(=O)=O)c1ccc(NC(=O)OCc2ccc(OC(=O)C(C)(C)C)c(NS(C)(=O)=O)c2)c(C)c1 [compound 1] | 0.62 | 0.28 | 0.82 |
| CCN(CCNS(C)(=O)=O)c1ccc(NC(=O)OCc2ccc(OC(=O)C(C)C)c(NC(=O)CCCC(=O)O)c2)c(C)c1 [compound 3] | – | – | 1.10 |
| CCC(=O)Oc1ccc(COC(=O)Nc2ccc(N(CC)CCNS(C)(=O)=O)cc2C)cc1NC(=O)c1ccc(NS(C)(=O)=O)cc1 [compound 6] | 0.15 | 0.00 | 0.22 |
